Assay results taken from patent publication US8095350.
No constants are given. Whether binding was seen depends on the method and setting. Some binding calls cover weakened binding; strength is not graded here.

Assays:
Conditions in all cases: remark: other sources report otherwise
[1] = target: T1, Human APOBEC-2 (APO2) containing residues 41-224 (human), Q9Y235; assay: X-ray crystal structure, figure legend FIG. 1e
T1 chain: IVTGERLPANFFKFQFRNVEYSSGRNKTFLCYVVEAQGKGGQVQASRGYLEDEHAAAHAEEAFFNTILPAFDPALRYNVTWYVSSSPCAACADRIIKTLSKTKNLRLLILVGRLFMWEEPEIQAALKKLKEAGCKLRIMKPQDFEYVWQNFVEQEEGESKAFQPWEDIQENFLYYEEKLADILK

[2] = target: T1, Human APOBEC-2 (APO2) containing …; assay: X-ray crystal structure, tetramer interface
[3] = target: T1, Human APOBEC-2 (APO2) containing …; assay: X-ray crystal structure, figure legend FIG. 1f
[4] = target: T1, Human APOBEC-2 (APO2) containing …; assay: X-ray crystal structure, self-association
[5] = target: T1, Human APOBEC-2 (APO2) containing …; assay: X-ray crystal structure, dimer interface

binding [1]: binds
binding [2]: binds
binding [3]: binds
binding [4]: binds
binding [5]: binds
B1: Human APOBEC-2 (APO2) containing residues 41-224, Q9Y235 41-224 (enzyme, UniProt Q9Y235 41-224, looked up)
chain: T1 chain
